In the test the target is T1, GST-PDIA5 (human) (UniProt Q14554).
T1 sequence: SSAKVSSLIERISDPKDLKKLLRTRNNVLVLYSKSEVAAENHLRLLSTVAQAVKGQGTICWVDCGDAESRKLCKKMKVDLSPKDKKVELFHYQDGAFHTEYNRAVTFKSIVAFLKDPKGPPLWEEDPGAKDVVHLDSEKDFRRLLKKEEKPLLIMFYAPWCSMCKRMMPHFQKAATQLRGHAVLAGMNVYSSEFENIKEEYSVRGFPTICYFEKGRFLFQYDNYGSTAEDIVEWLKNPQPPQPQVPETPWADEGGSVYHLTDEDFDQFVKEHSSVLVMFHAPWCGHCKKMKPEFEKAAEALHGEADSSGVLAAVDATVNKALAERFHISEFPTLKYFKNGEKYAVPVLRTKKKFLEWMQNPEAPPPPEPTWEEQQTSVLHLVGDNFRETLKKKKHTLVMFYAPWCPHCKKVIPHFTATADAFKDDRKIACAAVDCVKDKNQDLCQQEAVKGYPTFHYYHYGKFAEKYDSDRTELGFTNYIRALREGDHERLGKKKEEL
Description: pull-down; GST or GST-PDIA5 from E. coli lysate held on glutathione agarose beads (4°C, 2 h), washed five times; HA-CCAR1 E. coli lysate added for 6 h at 4°C; eluted with glutathione; western blot; only the target purified. For orientation: Immunoblotting shows a protein as a band on a membrane.

Results are given in words; binding and its absence hold for the method and conditions named. Binding seen in cells or lysates may run through a third protein. Some entries that bind do so weakly or less than the wild type. Sequences can lack the tags named with a protein.

B1: HA-CCAR1 (from E. coli) (protein, UniProt Q8IX12 1-1150)
chain: MAQFGGQKNPPWATQFTATAVSQPAALGVQQPSLLGASPTIYTQQTALAAAGLTTQTPANYQLTQTAALQQQAAAAAAALQQQYSQPQQALYSVQQQLQQPQQTLLTQPAVALPTSLSLSTPQPTAQITVSYPTPRSSQQQTQPQKQRVFTGVVTKLHDTFGFVDEDVFFQLSAVKGKTPQVGDRVLVEATYNPNMPFKWNAQRIQTLPNQNQSQTQPLLKTPPAVLQPIAPQTTFGVQTQPQPQSLLQAQISAASITPLLQTQPQPLLQQPQQKAGLLQPPVRIVSQPQPARRLDPPSRFSGRNDRGDQVPNRKDDRSRERERERRRSRERSPQRKRSRERSPRRERERSPRRVRRVVPRYTVQFSKFSLDCPSCDMMELRRRYQNLYIPSDFFDAQFTWVDAFPLSRPFQLGNYCNFYVMHREVESLEKNMAILDPPDADHLYSAKVMLMASPSMEDLYHKSCALAEDPQELRDGFQHPARLVKFLVGMKGKDEAMAIGGHWSPSLDGPDPEKDPSVLIKTAIRCCKALTGIDLSVCTQWYRFAEIRYHRPEETHKGRTVPAHVETVVLFFPDVWHCLPTRSEWETLSRGYKQQLVEKLQGERKEADGEQDEEEKDDGEAKEISTPTHWSKLDPKTMKVNDLRKELESRALSSKGLKSQLIARLTKQLKVEEQKEEQKELEKSEKEEDEDDDRKSEDDKEEEERKRQEEIERQRRERRYILPDEPAIIVHPNWAAKSGKFDCSIMSLSVLLDYRLEDNKEHSFEVSLFAELFNEMLQRDFGVRIYKSLLSLPEKEDKKEKDKKSKKDERKDKKEERDDETDEPKPKRRKSGDDKDKKEDRDERKKEDKRKDDSKDDDETEEDNNQDEYDPMEAEEAEDEEDDRDEEEMTKRDDKRDINRYCKERPSKDKEKEKTQMITINRDLLMAFVYFDQSHCGYLLEKDLEEILYTLGLHLSRAQVKKLLNKVVLRESCFYRKLTDTSKDEENHEESESLQEDMLGNRLLLPTPTVKQESKDVEENVGLIVYNGAMVDVGSLLQKLEKSEKVRAEVEQKLQLLEEKTDEDEKTILNLENSNKSLSGELREVKKDLSQLQENLKISENMNLQFENQMNKTIRNLSTVMDEIHTVLKKDNVKNEDKDQKSKENGASV
Regarding B1, the binding result was “binds”.

The record behind these values is PMC11379074.
